The nature of this data set: SDS-resistant polymerization of Aβ peptides with Cu^2+ (Western blot, image analysis). The format is biochemical. On the procedure: Following incubation (37° C.), aliquots of each reaction (2 ng peptide) were collected at 0 d, 1 d, 3 d and 5 d and western blotted using anti-Aβ monoclonal antibody 8E10 (FIG. 9). Migration of the molecular size markers are indicated (kDa). […] It should be noted that other means of visualizing and/or determining the presence or absence of polymerization other than western blot analysis may be used. Such other means include but are not limited to density sedimentation by centrifugation of the samples.
As above, electronic images captured using the Fluoro-S Image Analysis System (Bio-Rad, Hercules, Calif.) were analyzed using Multi-Analyst Software (Bio-Rad, Hercules, Calif.).
(0–30 μM) at pH 7.4 and 6.6 and the samples analyzed by Western blot and the signal quantitated using the Fluoro-S Image Analysis System (Bio-Rad, Hercules, Calif.) as previously described.

As for Aβ1-40: synthetic human Aβ1-40 peptide, under “pH 6.6, [Cu^2+] increased from 0.5 to 1 μM”, the increase in dimerization entry was “over 3 fold”.

In the case of “rat Aβ1-40: Rat/mouse Aβ1-40 with substitutions R5G, Y10F, H13R (DAEFGHDSGFEVRHQKLVFFAEDVGSNKGAIIGLMVGGVV; Amyloid-beta protein 40; UniProt P12023 672-711, looked up, fragment)”, the “formation of SDS-resistant Aβ polymers” value (Cu^2+ and Fe^3+, pH 7.4 and 6.6) was “Neither metal ion induced SDS-resistant Aβ polymers”.

These data come from patent US7045531B1, “Composition comprising a metal chelator and a method of treating amyloidosis by administering the metal chelator” (The General Hospital Corporation, priority 1997, dated 2006).
